Drawing on paper doi:10.1101/2023.05.11.540316, this text covers binding for one molecule.

Results are given in words; binding and its absence hold for the method and conditions named. In cells and extracts the contact can be indirect. A yes stands for co-enrichment or nearness to the bait. Other partners may have been found.

In the experiment the target is STXBP1-emGFP (UniProt P61765). Briefly: affinity purification with mass spectrometry.

B1: DDHD2, endogenous in PC12 cells (enzyme, UniProt D3ZJ91 1-699)
chain: MSSGESYQEQLSQSDPSPSPNSSSSFELLDMDVGSSYEPVSPHWFYCKVIDSKELWIPFNSEDSQQLEEAHGSGKDCNERVVPTDGGRYDVHLGERMRYAVYWDELPSEVRRCTWFYKGDKDNKYVPYSESFSQVLEDTYMLAVTLDEWKKKLESPNREIIVLHNPKLMVHYQPITGSDEWGSTSTEQGRPRSVKRGVESIPVDIHCGEPLQIDHLVFVVHGIGPACDLRFRSIVQCVNDFRSVSLNLLQTHFKKAQENQQIGRVEFLPVNWHSPLHSTGVDIDLQRITLPSINRLRHFTNDTILDVFFYNSPTYCQTIVDTVASEMNRIYTLFLQRNPDFKGGVSIAGHSLGSLILFDILTNQKDSIGDIDSEKGSLSTAEDLGDVSTLEEELKKLQLSEFVTVFEKEKVDREALALCTDRDLQEMGIPLGPRKKILNHFSATKSSVGINRPTMSASEVNIPKEKGDYLDVGIGQVSVKYPRLNYKPEIFFAFGSPIGMFLTVRGLRRIDPNYKFPTCKGFFNIYHPFDPVAYRIEPMVVPGVEFEPMLIPHHKGRKRMHLELREGLTRMSMDLKNNLLGSLRMAWKSFTRAPYPALQASEMAEDTEAESEPSSEKPSDANTEEPPVEVKEEAPINVGMLNGGQRIDYVLQEKPIESFNEYLFALQSHLCYWESEDTVLLVLKEIYQTQGIFLDQPLQ
As for B1, the binding entry is recorded as “binds”.
